Reference: PMC11208438
Results are given in words; binding and its absence hold for the method and conditions named. In cells and extracts the contact can be indirect.

Chains of the proteins cited; added tags and fusions are not shown. Lines headed by an entry give the natural chain unless they say otherwise; changes in a name come on top.
UniProt Q8NEZ5: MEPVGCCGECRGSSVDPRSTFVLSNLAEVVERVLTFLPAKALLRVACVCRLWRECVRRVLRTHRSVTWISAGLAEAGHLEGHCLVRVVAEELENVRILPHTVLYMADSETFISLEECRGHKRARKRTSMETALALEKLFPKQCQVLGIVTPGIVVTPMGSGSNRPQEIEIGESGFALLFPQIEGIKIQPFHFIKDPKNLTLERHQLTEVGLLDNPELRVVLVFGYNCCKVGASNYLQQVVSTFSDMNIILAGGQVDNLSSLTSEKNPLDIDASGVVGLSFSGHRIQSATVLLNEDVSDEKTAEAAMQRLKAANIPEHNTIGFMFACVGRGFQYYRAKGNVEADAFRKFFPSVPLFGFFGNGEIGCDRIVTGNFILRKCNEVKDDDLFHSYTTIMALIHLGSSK

Target: SmBiT-FBXO22-C326A (human) (UniProt Q8NEZ5)
Experiment: split reporter; HEK293T co-transfected with LgBiT-FKBP12 and SmBiT-FBXO22 (WT, C228A or C326A), 1 μM carfilzomib and Vivazine, treated with SP3CHO (1 μM for the mutants) in Opti-MEM with or without FCS; luminescence up to 4 h

- binding: no binding
Substance: LgBiT-FKBP12 (from UniProt P62942 1-108)
